In paper PMC11346181:
Results are given in words; binding and its absence hold for the method and conditions named. In cells and extracts the contact can be indirect. Some binding calls cover weakened binding; strength is not graded here.

The chains behind the UniProt entries cited, without tags or fusion partners.
UniProt Q8BK63: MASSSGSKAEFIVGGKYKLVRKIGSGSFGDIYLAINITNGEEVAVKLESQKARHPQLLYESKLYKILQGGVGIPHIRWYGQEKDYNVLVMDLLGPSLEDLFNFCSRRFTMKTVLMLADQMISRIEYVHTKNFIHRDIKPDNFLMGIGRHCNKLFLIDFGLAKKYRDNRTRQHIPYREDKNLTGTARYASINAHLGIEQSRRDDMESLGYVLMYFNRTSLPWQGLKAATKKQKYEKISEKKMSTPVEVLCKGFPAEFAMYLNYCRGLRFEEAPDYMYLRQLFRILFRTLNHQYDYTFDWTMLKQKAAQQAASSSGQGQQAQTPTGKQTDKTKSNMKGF

Molecular target: Casein kinase 1α (mouse (endogenous in ovarian tissue and primary ovarian granulosa cells)) (UniProt Q8BK63)
Assay: co-IP; ovarian tissues and primary ovarian GCs lysed in precooled NP40 buffer; 500 μg sample with 2 μg anti-CK1α antibody or anti-IgG antibody for 2 h, protein A/G agarose beads overnight at 4 °C, 5 washes with NP40 buffer, analysed by WB

binding: binds
Substance: RAF1 (from UniProt Q99N57 1-648) (enzyme)
